Only a part is listed here, and it is no random draw. For part of these data: At the low end of the ranking the order means little. The list shows a part of the results. For part of these data: Construct or isoform of the protein are uncertain.
Each sequence was assayed against HSF1 (UniProt Q00613) (assay: DAPPL (digital affinity profiling via proximity ligation, sequencing)). Settings: 10 mM Tris-HCl pH 7.5, 50 mM NaCl, 1 mM DTT, 4% glycerol, room temperature, 30 min; GST-TFs on glutathione beads, 16-mer random dsDNA library, 0.1% …; high values mean tight binding; double strand, one strand shown; scale: fold enrichment (6-mer frequency, TF over GST control).

Amino acid sequences for entries named in this document (tags omitted). A change or cut given only in a name is not applied to a line headed by its entry.
UniProt Q00613: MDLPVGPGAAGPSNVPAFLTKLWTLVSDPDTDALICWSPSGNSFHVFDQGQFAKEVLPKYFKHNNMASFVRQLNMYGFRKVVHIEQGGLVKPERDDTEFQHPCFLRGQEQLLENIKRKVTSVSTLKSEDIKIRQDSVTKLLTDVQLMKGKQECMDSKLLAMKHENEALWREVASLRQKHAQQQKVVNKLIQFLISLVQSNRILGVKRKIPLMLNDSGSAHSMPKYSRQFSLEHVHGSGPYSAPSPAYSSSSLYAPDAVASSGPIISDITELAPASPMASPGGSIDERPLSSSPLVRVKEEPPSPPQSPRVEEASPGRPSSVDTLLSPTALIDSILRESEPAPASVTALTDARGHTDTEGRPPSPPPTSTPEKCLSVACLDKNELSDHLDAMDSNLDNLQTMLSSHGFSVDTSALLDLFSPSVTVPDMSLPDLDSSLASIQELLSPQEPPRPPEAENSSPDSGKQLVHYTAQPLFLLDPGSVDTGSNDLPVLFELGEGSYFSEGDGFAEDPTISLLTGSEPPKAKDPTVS

| Sequence | binding signal |
| --- | --- |
| GTCGGA | 0.151 |
| AGAGGT | 0.745 |
| ATCGGC | 0.704 |
| GTCGTT | 0.532 |
| GGGCTG | 0.703 |
| TAGTGA | 0.647 |
| CCCAGT | 0.589 |
| GTAGAC | 0.611 |
| CGGGTA | 0.677 |
| ACAGGC | 0.559 |
| GGGACG | 0.377 |
| GGGTGT | 0.619 |
| CGGGCC | 0.552 |
| ACGCAG | 0.687 |
| TGAAGT | 0.703 |
| GTCAAG | 0.647 |
| GTCCAG | 0.782 |
| GTCTGC | 0.69 |
| GCGGAT | 0.819 |
| GGGCAG | 0.442 |

| Sequence | binding signal |
| --- | --- |
| GGTGCT | 0.784 |
| TAGGGA | 0.867 |
| GAGCAT | 0.785 |
| GGGTCC | 0.627 |
| GTGACG | 0.508 |
| GTCAGC | 0.53 |
| GTTGGA | 0.493 |
| GGGTAC | 0.734 |
| CGAGGA | 0.717 |
| GACGAG | 0.57 |
| CAGTAA | 0.823 |
| AGGAGC | 0.315 |
| GGTGAG | 0.325 |
| GGAGTT | 0.416 |
| TGGGAG | 0.416 |
| GCCGTG | 0.232 |
| TAGAGT | 0.901 |
| GTTAGA | 0.768 |
| GGACCA | 0.658 |

Each sequence was assayed against T1, ELF2 (UniProt Q15723) in the same assay as above. Settings: 10 mM Tris-HCl pH 7.5, 50 mM NaCl, 1 mM DTT, 4% glycerol, room temperature, 30 min; GST-TFs on glutathione beads, 16-mer random dsDNA library, 0.1% …; high values mean tight binding; double strand, one strand shown; scale: fold enrichment (6-mer frequency, TF over GST control).
T1 sequence: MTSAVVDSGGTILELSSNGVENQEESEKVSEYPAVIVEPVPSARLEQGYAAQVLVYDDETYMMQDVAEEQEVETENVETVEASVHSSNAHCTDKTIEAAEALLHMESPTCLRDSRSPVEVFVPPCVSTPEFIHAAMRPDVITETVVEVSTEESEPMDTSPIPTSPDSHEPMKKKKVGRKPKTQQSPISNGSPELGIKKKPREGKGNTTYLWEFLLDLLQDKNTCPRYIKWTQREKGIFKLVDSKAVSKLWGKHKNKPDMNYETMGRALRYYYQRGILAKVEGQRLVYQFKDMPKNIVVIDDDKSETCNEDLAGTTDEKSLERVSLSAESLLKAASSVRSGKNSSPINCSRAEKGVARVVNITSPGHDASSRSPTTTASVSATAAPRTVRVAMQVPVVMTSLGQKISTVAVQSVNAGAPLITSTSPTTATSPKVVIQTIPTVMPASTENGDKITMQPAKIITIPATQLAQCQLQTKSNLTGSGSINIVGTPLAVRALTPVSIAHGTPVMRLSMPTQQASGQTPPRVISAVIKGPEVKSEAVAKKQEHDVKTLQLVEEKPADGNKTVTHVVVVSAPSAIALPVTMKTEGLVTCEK

| Sequence | binding signal |
| --- | --- |
| GTCGGA | 0.17 |
| AGAGGT | 0.794 |
| ATCGGC | 0.628 |
| GTCGTT | 0.692 |
| GGGCTG | 0.868 |
| TAGTGA | 0.556 |
| CCCAGT | 0.645 |
| GTAGAC | 0.75 |
| CGGGTA | 0.891 |
| ACAGGC | 0.642 |
| GGGACG | 0.471 |
| GGGTGT | 0.683 |
| CGGGCC | 0.743 |
| ACGCAG | 0.774 |
| TGAAGT | 0.731 |
| GTCAAG | 0.767 |
| GTCCAG | 0.637 |
| GTCTGC | 0.835 |
| GCGGAT | 0.992 |
| GGGCAG | 0.56 |

| Sequence | binding signal |
| --- | --- |
| GGTGCT | 0.871 |
| TAGGGA | 0.811 |
| GAGCAT | 0.731 |
| GGGTCC | 0.805 |
| GTGACG | 0.64 |
| GTCAGC | 0.709 |
| GTTGGA | 0.479 |
| GGGTAC | 0.927 |
| CGAGGA | 0.675 |
| GACGAG | 0.505 |
| CAGTAA | 0.718 |
| AGGAGC | 0.385 |
| GGTGAG | 0.335 |
| GGAGTT | 0.471 |
| TGGGAG | 0.424 |
| GCCGTG | 0.239 |
| TAGAGT | 0.741 |
| GTTAGA | 0.729 |
| GGACCA | 0.726 |

— PMC7862700
